The experiment concerns the target TaPUB2 fused to the GAL4 DNA-binding domain (BD) in pGBKT7 (Triticum aestivum (wheat)). Briefly: two-hybrid; Matchmaker GAL4 system, AH109 yeast; co-transformants grown on DDO (SD/-Leu/-Trp), spotted on QDO/X (SD/-Leu/-Trp/-His/-Ade/X-a-gal).

These are yes or no findings as the source states them, for the method shown. Binding calls can cover weak binding; strength is not graded here.

For the substance “TaPUB3 fused to the GAL4 activation domain (AD) in pGADT7 (from UniProt A0A3B6CDH9)”, the binding entry was “binds”.
